Laboratory results: patent publication US20110165161A1, “ANTI-EPCAM ANTIBODIES THAT INDUCE APOPTOSIS OF CANCER CELLS AND METHODS USING SAME” (priority 2009, published 2011)
Some of these results come from one statement about several compounds together.

Test system: NCI-H358 lung cancer cells
Experiment: Cell death in NCI-H358 lung cancer cells (Annexin V + PI)
Assay type: cell-based, human
Settings: 5 independent experiments; mAb 10 μg/ml
Experimental: 5×10^4 NCI-H358 cells were seeded to each well of a 96-well plate, and then 10 μg/ml of anti-EpCAM or control (9E10) mAbs diluted in the medium was added into the cells. After a 17-hr incubation at 37° C., the cells were stained with 0.3 μl of FITC-conjugated Annexin V (Strong Biotech Corp. Cat. No. AVK250) in 50 μl Annexin V binding buffer (Strong Biotech Corp. Cat. No. AVK250) at RT for 20 min. After wash, the cells were then stained with 0.3 μl of propidium iodide in 200 μl Annexin V binding buffer. Annexin V and Propidium Iodide were used as a joint indicator for measuring cell death. The data were acquired with BD FACSCalibur based on an acquisition of 3,000-5,000 cells and analyzed with the Cell Quest software. The combined percentages of the Annexin V+/PI+, Annexin V+/PI− and Annexin V−/PI+populations were considered as dead cells.

B1: 12H8: murine anti-human EpCAM monoclonal antibody (IgG2a, K), hybridoma m342-12H8.3; VH SEQ ID NO:3, VL SEQ ID NO:5 (antibody, listed as Mus musculus, V domains shown)
VH: QIQLVQSGPELKKPGETVKISCKTSGYTFTDYSMHWVNQAPGKGLKWMGWINTETGEPTYTDDFKGRFAFSLETSASTAYLQINNLKNEDTATYFCARTAVYWGQGTTLTVSS
VL: DIQMTQSPSSLSASLGERVSLTCRASQEISGSLSWLQQKPDGTIKRLIYAASTLNSGVPKRFSGRRSGSDYSLTISSLESEDFVDYYCLQYSSYPWSFGGGTKLEIKR
B1 was tested, and the “Cell death, Annexin V+PI staining above background” value (from here on “Cell death”) was at least 30%.

B2: 1F10: murine anti-human EpCAM monoclonal antibody (IgG1, λ1), hybridoma m338-1F10.3; VH SEQ ID NO:11, VL SEQ ID NO:13 (antibody, listed as Mus musculus, V domains shown)
VH: EVKLLESGGGLVQPGGSLKLSCAASGFDFSRYWMSWVRQAPGKGLEWIGEINPDSSTMNYTPSLKDKFIISRDNAKNTLYLQMSKVRSEDTALYYCARGAYAMDYWGQGTSVTVSS
VL: QAVVTQESALTTSPGETVTLTCRSSTGAVTTSNNANWVQEKPDHLFTGLIGATNNRAPGVPARFSGSLIGDKAALTITGAQTEDEAIYFCALWYINHWVFGGGTKLTVLG
With B2 the “Cell death” value was at least 30%.

B3: 1G10: murine anti-human EpCAM monoclonal antibody (IgG1, K), hybridoma m290-1G10; VH SEQ ID NO:7, VL SEQ ID NO:9 (antibody, listed as Mus musculus, V domains shown)
VH: QIQLVQSGPELKKPGETVKISCKASGYTFTNYGMNWVKQAPGKGFKWMGWINTYTGEPTYADDFKGRFAFSLETSASTAYLQINNLQNEDMATYFCARWGYDFDYWGQGTTLTVSS
VL: QIVLTQSPAIMSSSPGEKVTMTCSASSSISYMNWYQQKPGTSPKRWIYDTSKLASGVPARFSGSGSGTSYSLTISSMEAEDAATYYCHQRSSYPYTFGGGTKLEIKR
For B3, the “Cell death” value was at least 30%.

B4: 2D11: murine anti-human EpCAM monoclonal antibody (IgG1, K), hybridoma m322-2D11.19; VH SEQ ID NO:15, VL SEQ ID NO:17 (antibody, listed as Mus musculus, V domains shown)
VH: QIQLVQSGPELKKPGETVKISCKASGYTFTNYGMNWVKQAPGKGLKWMGWINTNTGEATYVEEFKGRVVFSLETSASTAYLQINNLKNEDTATYFCARIGYVWYFDVWGAGTTVTVSS
VL: DIVMSQSPSSLAVSAGEKVTMSCKSSQSLFSSRTRKNYLAWYQQKPGQSPKLLIYWASTRESGVPDRFTGSGSGTDFTLTINSVQAEDLAVYYCKHSNNLFTFGSGTKLEIKR
B4 was tested, and the “Cell death” value was at least 30%.

B5: 6D11: murine anti-human EpCAM monoclonal antibody (IgG1, K), hybridoma m338-6D11.8; VH SEQ ID NO:23, VL SEQ ID NO:25 (antibody, listed as Mus musculus, V domains shown)
VH: EVQLVESGGDLVKPGGSLKLSCAASGFAFDSYGMSWIRQTPGTRLEWVATISSGGYYTYYEDNVKGRFIISRDNAKNTLDLQMSGLKSEDAATYYCARRGNYDVDYYAMDYWGQGTSVIVSS
VL: DVVLTQIPLSLPVSLGDQASISCRSSQSLEHSNGNTYLHWYLQKPGQSPKLLIYKVSNRFSGVPDRFSGSGSGTDFTLKISRVEAEDLGVYFCSQSTHVPPWTFGGGTKLEFKR
With B5 the “Cell death” value was at least 30%.
